Reference: PubChem BioAssay AID504744 (Drosophila RNAi Screening Center, 2011)
The screen tested about 23,000 reagents; shown is a random part of those that have a named target and a result. Of all reagents, 98 (0.43%) got an active call. 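Only hit calls are given; the phospho-dAkt signals, z-scores and hit direction were not deposited.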 Names joined by + are all predicted targets of the reagent.

Purpose: 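Uncover factors, including feedback loops, that control dAkt activation in fly cells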 (primary screen)
Cell system: Drosophila Kc167 cells
Reagent: long dsRNA against Drosophila genes, 250 ng dsRNA per well of a 384-well plate
Duration: 3 days of knock-down, then overnight serum-free starvation before stimulation
Treatment: bovine insulin at 387 nM for 10 minutes after 12 h without serum
Read-out: 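Per-well phospho-dAkt level from an in-cell fluorescent antibody stain, divided by a DNA-dye signal; log2 residuals turned into z-scores that take cell number into account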
Call rule: 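Under insulin, a gene counts as a hit if the average z-score of two replicates lies above 2.5 or below -2.5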

no.	Gene	DRSC id	call
1	CG33159	DRSC08199	inactive
2	P5CDh1 (delta-1-Pyrroline-5-carboxylate dehydrogenase 1)	DRSC11801	inactive
3	reb (rebuf)	DRSC06308	inactive
4	dnr1 (defense repressor 1)	DRSC03948	inactive
5	dnr1 (defense repressor 1)	DRSC04122	inactive
6	CG6295	DRSC16012	inactive
7	fz3 (frizzled 3)	DRSC18779	inactive
8	Rad51D (Rad51 recombinase D)	DRSC06840	inactive
9	CG14410	DRSC19596	inactive
10	beat-IV (beaten path IV)	DRSC14195	inactive
11	beat-IV (beaten path IV)	DRSC14673	inactive
12	Vps13B (Vacuolar protein sorting 13B)	DRSC15060	inactive
13	Arpc4 (Actin-related protein 2/3 complex, subunit 4)	DRSC02917	inactive
14	CG12947	DRSC14575	inactive
15	Ddrgk1 (DDRGK domain containing 1)	DRSC15897	inactive
16	Cad86C (Cadherin 86C)	DRSC15587	inactive
17	Cad86C (Cadherin 86C)	DRSC15611	inactive
18	Arp1 (Actin-related protein 1)	DRSC14118	inactive
19	CG1529	DRSC20515	inactive
20	cav (caravaggio)	DRSC15995	inactive
21	Den1 (Deneddylase 1)	DRSC07195	inactive
22	Erasp (Endoplasmic reticulum stress-associated serine protease)	DRSC07111	inactive
23	Hex-A (Hexokinase A)	DRSC18259	inactive
24	Or59c (Odorant receptor 59c)	DRSC04633	inactive
25	CG11882	DRSC14425	inactive
26	Nepl18 (Neprilysin-like 18)	DRSC14879	inactive
27	Gr63a (Gustatory receptor 63a)	DRSC08438	inactive
28	Dus4 (Dihydrouridine synthase 4)	DRSC02066	inactive
29	CG12490	DRSC04123	inactive
30	mdu (meduse)	DRSC19860	inactive
31	CG13796 + CG31904	DRSC22161	inactive
32	Atg7 (Autophagy-related 7)	DRSC05741	inactive
33	Atg7 (Autophagy-related 7)	DRSC06937	inactive
34	CG14327	DRSC14806	inactive
35	CG17786	DRSC15270	inactive
36	Inx6 (Innexin 6)	DRSC20579	inactive
37	CG4267	DRSC00647	inactive
38	Rcd1 (Reduction in Cnn dots 1)	DRSC07116	inactive
39	Peritrophin-15b	DRSC02266	inactive
40	mRpL38 (mitochondrial ribosomal protein L38)	DRSC19734	inactive
41	Prat (Phosphoribosylamidotransferase)	DRSC16797	inactive
42	CG13155	DRSC06280	inactive
43	CG10750	DRSC02105	inactive
44	Efhc1.1 (EF-hand domain containing 1.1)	DRSC20135	inactive
45	l(3)72Dr (lethal (3) 72Dr)	DRSC10478	inactive
46	CG16799	DRSC06626	inactive
47	CG16799	DRSC21553	inactive
48	AcCoAS (Acetyl Coenzyme A synthase)	DRSC11477	inactive
49	AcCoAS (Acetyl Coenzyme A synthase)	DRSC11603	inactive
50	AcCoAS (Acetyl Coenzyme A synthase)	DRSC22850	inactive
51	CG4069	DRSC10396	inactive
52	CG9030	DRSC20139	inactive
53	CG18048	DRSC12573	inactive
54	Ssdp (Sequence-specific single-stranded DNA-binding protein)	DRSC16211	inactive
55	CG1324	DRSC20496	inactive
56	PIG-H + Kmn2	DRSC12653	inactive
57	CG13634	DRSC14635	inactive
58	CG32669	DRSC18864	inactive
59	Sin1 (SAPK-interacting protein 1)	DRSC05965	active
60	Reps (RALBP1 associated Eps domain containing)	DRSC02940	inactive
61	HINT1 (histidine triad nucleotide binding protein 1)	DRSC00548	inactive
62	Hap40 (Huntingtin-associated protein 40 kDa)	DRSC20085	inactive
63	CG7824	DRSC16321	inactive
64	Ca-alpha1T (Ca[2+]-channel protein alpha[[1]] subunit T)	DRSC17842	inactive
65	Ca-alpha1T (Ca[2+]-channel protein alpha[[1]] subunit T)	DRSC18103	inactive
66	Ca-alpha1T (Ca[2+]-channel protein alpha[[1]] subunit T)	DRSC18356	inactive
67	Ca-alpha1T (Ca[2+]-channel protein alpha[[1]] subunit T)	DRSC18357	inactive
68	Ca-alpha1T (Ca[2+]-channel protein alpha[[1]] subunit T)	DRSC21430	inactive
69	CG9686	DRSC18439	inactive
70	tsu (tsunagi)	DRSC07265	inactive
71	lncRNA:sphinx + ATPsynF	DRSC17191	inactive
72	CG4957	DRSC02793	inactive
73	CG3732	DRSC04410	inactive
74	aos (argos)	DRSC11323	inactive
75	CG31688 + CG31687	DRSC02116	inactive
76	baz (bazooka)	DRSC20309	inactive
77	CG31735	DRSC01518	inactive
78	Pdhb (Pyruvate dehydrogenase E1 beta subunit)	DRSC14420	inactive
79	Prx6a (Peroxiredoxin 6a)	DRSC00565	inactive
80	IFT52 (Intraflagellar transport 52)	DRSC03271	inactive
81	I-2 (Inhibitor-2)	DRSC11194	inactive
82	CG11109	DRSC11633	inactive
83	CG13623	DRSC14625	inactive
84	Cdc23 (Cell division cycle 23)	DRSC02708	inactive
85	KFase (Kynurenine formamidase)	DRSC03258	inactive
86	CG34286	DRSC13372	inactive
87	CG34286	DRSC21790	inactive
88	CG10132	DRSC02013	inactive
89	Tpl94D (Transition protein-like 94D)	DRSC13593	inactive
90	POSH (Plenty of SH3s)	DRSC07499	inactive
91	rgr (regular)	DRSC06487	inactive
92	rgr (regular)	DRSC07229	inactive
93	CG11406	DRSC04010	inactive
94	CG11406	DRSC04108	inactive
95	CG33007 (retired record)	DRSC21845	inactive
96	alphaKap4 (alpha Karyopherin-4)	DRSC09823	inactive
97	NijB (Ninjurin B)	DRSC09850	inactive
98	topi (matotopetli)	DRSC16431	inactive
99	Cpr50Ca (Cuticular protein 50Ca)	DRSC05454	inactive
100	Cpr50Ca (Cuticular protein 50Ca)	DRSC06372	inactive
101	Cpr50Ca (Cuticular protein 50Ca)	DRSC06375	inactive
102	CG30156	DRSC04959	inactive
103	CG7856	DRSC04896	inactive
104	AsnRS (Asparaginyl-tRNA synthetase)	DRSC01990	inactive
105	MCU (Mitochondrial calcium uniporter)	DRSC10339	inactive
106	Idi (Isopentenyl-diphosphate delta isomerase)	DRSC15918	inactive
107	sqh (spaghetti squash)	DRSC18837	inactive

Entries listed so far whose gene name begins with I or i:
Gene	DRSC id	call
Inx6 (Innexin 6)	DRSC20579	inactive
IFT52 (Intraflagellar transport 52)	DRSC03271	inactive
I-2 (Inhibitor-2)	DRSC11194	inactive
Idi (Isopentenyl-diphosphate delta isomerase)	DRSC15918	inactive
